This is one part of the list. Residues, ends and D or L forms follow the SMILES beside them. *: point of attachment. Cbz = O=C(OCc1ccccc1)*
Legend:
Experiment in all cases: log2 fold change, soluble protein after heating vs DMSO (PISA); higher = thermal stabilisation; K562 cells, 10 uM, 30 min; active = over 0.2 and 3.5 SD of the protein, either way, in both replicates (recomputed)
IRAK-1-4 Inhibitor I = compound: C1COCCN1CCN2C3=CC=CC=C3N=C2NC(=O)C4=CC(=CC=C4)[N+](=O)[O-] [IRAK-1-4 Inhibitor I]
Outline: (§1)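 For each measurement, 10 μM compound was applied for 30 min to K562 cells at 2×10^6 cells/mL. Aliquots were heated for 3 min across 48°C-58°C, pooled, and extracted in PBS with 0.5% NP-40 at 4°C; the supernatant after 21,000xg for 90 min was soluble protein. This was quantified by TMTpro 16plex LC-MS/MS with channel sums equalised, and thermal stability was reported relative to control samples from duplicates, on a log2 fold-change scale.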

Sequences of proteins named here, by UniProt entry; tags and fusion partners are left off. A change or cut given only in a name is not applied to a line headed by its entry.
UniProt P32321: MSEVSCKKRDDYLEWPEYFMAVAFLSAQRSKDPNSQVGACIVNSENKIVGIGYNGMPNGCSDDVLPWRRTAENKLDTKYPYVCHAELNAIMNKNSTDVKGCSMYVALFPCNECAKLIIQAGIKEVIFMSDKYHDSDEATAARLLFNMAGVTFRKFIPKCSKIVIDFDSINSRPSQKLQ
UniProt Q9H0L4: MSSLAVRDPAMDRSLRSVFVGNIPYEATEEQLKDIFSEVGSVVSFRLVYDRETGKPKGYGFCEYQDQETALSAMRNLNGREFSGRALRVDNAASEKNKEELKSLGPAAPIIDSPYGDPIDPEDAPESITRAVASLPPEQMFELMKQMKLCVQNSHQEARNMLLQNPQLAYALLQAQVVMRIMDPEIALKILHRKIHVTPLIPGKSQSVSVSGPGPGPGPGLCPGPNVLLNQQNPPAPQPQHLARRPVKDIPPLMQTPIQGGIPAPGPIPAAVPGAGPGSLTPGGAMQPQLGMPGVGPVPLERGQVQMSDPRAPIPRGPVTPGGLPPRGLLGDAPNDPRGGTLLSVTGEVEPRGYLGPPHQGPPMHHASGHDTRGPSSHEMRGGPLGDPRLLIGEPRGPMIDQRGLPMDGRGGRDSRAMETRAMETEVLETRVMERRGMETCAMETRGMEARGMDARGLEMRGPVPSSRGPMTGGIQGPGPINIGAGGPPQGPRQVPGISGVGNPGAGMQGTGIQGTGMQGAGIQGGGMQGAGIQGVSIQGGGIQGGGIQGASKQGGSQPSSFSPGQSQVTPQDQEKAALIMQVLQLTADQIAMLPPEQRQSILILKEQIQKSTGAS
UniProt Q96C57: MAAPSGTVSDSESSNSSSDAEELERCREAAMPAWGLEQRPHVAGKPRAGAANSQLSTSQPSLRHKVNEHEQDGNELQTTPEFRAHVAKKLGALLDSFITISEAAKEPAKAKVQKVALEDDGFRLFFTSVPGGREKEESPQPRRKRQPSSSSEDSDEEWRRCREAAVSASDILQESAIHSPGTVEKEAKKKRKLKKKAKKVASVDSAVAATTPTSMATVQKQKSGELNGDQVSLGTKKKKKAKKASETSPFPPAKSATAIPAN
UniProt Q6UX04: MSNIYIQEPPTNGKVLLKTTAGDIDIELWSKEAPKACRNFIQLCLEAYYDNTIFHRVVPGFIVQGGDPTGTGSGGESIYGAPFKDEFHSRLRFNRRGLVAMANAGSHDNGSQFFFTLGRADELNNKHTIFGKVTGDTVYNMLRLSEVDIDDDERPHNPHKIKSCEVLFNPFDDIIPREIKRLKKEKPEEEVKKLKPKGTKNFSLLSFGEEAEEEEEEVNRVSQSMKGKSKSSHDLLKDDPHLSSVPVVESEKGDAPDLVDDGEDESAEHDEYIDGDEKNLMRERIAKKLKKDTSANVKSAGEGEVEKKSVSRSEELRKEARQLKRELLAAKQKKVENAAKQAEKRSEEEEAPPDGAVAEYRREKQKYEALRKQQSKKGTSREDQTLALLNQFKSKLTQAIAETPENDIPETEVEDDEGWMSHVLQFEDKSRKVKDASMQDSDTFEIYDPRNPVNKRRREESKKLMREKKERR
UniProt Q7L1T6: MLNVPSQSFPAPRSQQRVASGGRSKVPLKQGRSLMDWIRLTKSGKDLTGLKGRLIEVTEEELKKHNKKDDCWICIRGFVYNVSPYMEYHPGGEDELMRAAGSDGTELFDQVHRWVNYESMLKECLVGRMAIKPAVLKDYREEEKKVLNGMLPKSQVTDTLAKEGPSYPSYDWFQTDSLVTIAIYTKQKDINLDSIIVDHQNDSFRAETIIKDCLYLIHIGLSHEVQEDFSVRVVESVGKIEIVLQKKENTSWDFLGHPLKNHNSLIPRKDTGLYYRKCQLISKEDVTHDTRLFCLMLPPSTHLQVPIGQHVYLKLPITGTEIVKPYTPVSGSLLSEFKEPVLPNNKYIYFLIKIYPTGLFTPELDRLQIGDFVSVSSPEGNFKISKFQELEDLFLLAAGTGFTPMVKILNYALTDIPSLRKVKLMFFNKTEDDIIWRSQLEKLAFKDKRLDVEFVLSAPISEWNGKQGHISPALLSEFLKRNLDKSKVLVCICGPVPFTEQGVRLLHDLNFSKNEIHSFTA
UniProt P10619: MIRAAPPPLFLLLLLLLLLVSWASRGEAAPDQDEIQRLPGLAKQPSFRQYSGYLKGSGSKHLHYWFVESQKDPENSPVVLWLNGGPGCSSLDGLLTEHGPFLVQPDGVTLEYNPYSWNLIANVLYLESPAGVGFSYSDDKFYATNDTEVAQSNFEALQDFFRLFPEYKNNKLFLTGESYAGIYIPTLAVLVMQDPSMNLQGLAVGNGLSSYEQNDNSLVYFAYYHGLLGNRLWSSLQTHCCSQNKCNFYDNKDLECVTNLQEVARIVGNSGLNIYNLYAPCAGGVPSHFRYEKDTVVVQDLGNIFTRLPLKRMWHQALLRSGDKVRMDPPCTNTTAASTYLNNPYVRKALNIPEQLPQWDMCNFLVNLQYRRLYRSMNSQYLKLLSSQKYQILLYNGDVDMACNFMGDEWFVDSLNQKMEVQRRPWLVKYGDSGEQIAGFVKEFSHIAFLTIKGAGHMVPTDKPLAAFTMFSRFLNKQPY
UniProt Q7Z7A3: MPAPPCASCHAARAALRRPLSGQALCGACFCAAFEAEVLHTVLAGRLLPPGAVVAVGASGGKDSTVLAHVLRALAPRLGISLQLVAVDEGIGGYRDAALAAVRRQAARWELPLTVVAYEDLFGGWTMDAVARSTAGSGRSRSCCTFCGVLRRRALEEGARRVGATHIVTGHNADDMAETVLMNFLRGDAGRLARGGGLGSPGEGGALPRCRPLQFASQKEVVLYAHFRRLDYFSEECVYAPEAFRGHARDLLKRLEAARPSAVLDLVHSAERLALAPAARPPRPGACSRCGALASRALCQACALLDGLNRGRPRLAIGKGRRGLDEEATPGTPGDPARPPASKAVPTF
UniProt P99999: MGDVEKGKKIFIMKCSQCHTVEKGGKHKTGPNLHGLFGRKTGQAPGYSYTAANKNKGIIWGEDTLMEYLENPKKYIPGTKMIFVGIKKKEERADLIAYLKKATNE
UniProt Q16850: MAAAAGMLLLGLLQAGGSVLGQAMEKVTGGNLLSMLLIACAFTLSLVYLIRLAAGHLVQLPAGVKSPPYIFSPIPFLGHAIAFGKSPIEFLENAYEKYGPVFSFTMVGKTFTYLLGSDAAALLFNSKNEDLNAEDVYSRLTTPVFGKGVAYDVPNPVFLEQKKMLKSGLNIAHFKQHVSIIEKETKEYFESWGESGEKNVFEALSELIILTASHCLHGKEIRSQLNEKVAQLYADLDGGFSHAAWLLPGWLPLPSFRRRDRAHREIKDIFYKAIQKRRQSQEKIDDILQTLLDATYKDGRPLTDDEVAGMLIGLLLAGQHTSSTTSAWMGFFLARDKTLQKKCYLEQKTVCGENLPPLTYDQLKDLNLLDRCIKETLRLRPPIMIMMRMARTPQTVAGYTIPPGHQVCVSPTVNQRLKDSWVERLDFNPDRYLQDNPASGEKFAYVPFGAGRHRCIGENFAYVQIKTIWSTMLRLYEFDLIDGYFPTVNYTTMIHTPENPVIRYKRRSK
UniProt Q8TEB1, whole entry, looked up: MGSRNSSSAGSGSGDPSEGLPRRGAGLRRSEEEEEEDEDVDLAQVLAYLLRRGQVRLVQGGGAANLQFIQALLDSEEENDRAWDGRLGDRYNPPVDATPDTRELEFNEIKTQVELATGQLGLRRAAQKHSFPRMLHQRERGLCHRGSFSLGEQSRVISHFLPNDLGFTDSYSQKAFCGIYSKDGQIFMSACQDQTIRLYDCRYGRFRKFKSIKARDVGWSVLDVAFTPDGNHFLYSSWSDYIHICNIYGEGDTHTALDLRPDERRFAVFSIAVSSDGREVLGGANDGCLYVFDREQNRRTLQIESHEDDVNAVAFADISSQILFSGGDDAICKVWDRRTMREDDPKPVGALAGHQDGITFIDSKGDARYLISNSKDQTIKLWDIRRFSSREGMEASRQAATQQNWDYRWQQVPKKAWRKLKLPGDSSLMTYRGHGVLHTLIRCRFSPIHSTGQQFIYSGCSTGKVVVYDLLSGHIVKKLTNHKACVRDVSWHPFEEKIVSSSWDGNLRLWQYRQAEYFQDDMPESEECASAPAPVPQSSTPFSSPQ
UniProt P01034: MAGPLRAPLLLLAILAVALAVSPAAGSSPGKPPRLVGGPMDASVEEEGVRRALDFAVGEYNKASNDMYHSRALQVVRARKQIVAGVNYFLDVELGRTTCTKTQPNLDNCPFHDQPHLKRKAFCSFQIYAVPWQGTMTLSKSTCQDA
UniProt P51397: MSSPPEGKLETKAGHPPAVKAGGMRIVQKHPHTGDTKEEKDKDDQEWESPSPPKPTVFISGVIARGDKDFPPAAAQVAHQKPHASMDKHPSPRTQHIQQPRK
UniProt Q96C86: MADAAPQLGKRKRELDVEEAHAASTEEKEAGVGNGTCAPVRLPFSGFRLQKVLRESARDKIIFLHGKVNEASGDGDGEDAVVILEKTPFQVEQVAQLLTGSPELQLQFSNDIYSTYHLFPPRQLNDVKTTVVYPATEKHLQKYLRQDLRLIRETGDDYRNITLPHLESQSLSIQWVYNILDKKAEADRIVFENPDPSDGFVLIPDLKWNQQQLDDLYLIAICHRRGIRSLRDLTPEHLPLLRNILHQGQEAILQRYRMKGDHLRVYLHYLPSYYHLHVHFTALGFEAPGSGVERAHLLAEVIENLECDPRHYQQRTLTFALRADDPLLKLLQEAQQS
UniProt Q69YN2: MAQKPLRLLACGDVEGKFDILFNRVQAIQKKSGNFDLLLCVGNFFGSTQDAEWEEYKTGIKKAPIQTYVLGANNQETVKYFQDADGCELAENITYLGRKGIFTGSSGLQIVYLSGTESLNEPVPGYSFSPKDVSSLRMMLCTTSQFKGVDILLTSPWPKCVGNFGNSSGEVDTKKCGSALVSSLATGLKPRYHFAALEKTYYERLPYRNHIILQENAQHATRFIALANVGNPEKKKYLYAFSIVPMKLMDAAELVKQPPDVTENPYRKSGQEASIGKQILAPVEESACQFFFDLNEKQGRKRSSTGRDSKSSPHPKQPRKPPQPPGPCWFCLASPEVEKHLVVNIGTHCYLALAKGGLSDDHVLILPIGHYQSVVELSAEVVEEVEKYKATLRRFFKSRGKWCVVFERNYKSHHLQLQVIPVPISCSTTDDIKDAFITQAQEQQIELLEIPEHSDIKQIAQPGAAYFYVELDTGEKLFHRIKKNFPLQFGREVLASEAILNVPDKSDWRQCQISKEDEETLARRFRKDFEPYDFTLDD
UniProt P33240: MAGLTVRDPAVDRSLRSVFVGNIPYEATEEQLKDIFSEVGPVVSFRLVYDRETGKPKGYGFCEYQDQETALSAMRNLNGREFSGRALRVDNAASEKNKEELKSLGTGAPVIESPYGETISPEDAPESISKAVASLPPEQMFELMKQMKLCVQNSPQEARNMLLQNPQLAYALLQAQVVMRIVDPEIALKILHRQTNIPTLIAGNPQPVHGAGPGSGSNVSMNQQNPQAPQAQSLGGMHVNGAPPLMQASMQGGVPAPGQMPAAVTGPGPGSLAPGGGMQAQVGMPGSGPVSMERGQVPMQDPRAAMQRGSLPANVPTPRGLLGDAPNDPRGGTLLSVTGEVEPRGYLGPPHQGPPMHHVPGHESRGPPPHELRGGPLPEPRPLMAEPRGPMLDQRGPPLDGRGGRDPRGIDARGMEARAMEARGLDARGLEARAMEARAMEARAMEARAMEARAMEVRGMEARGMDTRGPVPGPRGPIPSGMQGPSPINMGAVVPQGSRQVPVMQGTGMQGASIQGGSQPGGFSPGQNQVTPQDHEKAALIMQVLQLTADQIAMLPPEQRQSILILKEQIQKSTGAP

ibrutinib = compound: C=CC(=O)N1CCC[C@@H](n2nc(-c3ccc(Oc4ccccc4)cc3)c3c(N)ncnc32)C1 [ibrutinib]
Outline: as §1

[1] = compound: CC(=O)c1cnc2ccc(-c3cc(Cl)c(O)c(Cl)c3)nc2c1N[C@H]1CC[C@H](CN(C)C)CC1
Outline: as §1

ralimetinib = compound: CC(C)(C)Cn1c(N)nc2ccc(-c3[nH]c(C(C)(C)C)nc3-c3ccc(F)cc3)nc21 [ralimetinib]
Outline: as §1

[2] = compound: CC(C)(O)CC(=O)NCCn1ccc2ncnc(Nc3ccc(Oc4cccc(C(F)(F)F)c4)c(Cl)c3)c21
Outline: as §1

[3] = compound: CC(C)C1=C2N=C(C=C(N2N=C1)NCC3=CC=CC=C3)NCCCCCCN
Outline: as §1

[4] = compound: CC(C)C[C@@H](C=O)NC(=O)[C@H](CC(C)C)NC(=O)[C@H](CC(C)C)NC(=O)OCc1ccccc1
Outline: as §1

pinometostat = compound: CC(C)N(C[C@H]1O[C@@H](n2cnc3c(N)ncnc32)[C@H](O)[C@@H]1O)[C@H]1C[C@@H](CCc2nc3cc(C(C)(C)C)ccc3[nH]2)C1 [pinometostat]
Outline: as §1

[5] = compound: CC1=C(C(CC(=O)N1)C2=CC=C(C=C2)C(F)(F)F)C(=O)NC3=C(C=C4C(=C3)C=NN4)F
Outline: as §1

[6] = compound: CC1=C(C2=C(C=C1)C(=O)C3=CC=CC=C3N2CCCN)C
Outline: as §1

[7] = compound: CC1=C(C=C(C=C1)NC(=O)C2=CC(=CC=C2)C(C)(C)C#N)NC3=CC4=C(C=C3)N=CN(C4=O)C
Outline: as §1

[8] = compound: CC1=C(C=C(C=C1)NC(=O)C2=CC(=CC=C2)N(C)C)NC(=O)C3=CC=C(C=C3)O
Outline: as §1

[9] = compound: CC1=CC=C(C=C1)SC2=C3C=C(SC3=CN=C2)C(=O)N
Outline: as §1

[10] = compound: CC1=NC(=CC=C1)C2=C(N=C(N2)C(C)(C)C)C3=CC4=NC=CN=C4C=C3
Outline: as §1

Nexturastat A = compound: CCCCN(Cc1ccc(C(=O)NO)cc1)C(=O)Nc1ccccc1 [Nexturastat A]
Outline: as §1

vemurafenib = compound: CCCS(=O)(=O)Nc1ccc(F)c(C(=O)c2c[nH]c3ncc(-c4ccc(Cl)cc4)cc23)c1F [vemurafenib]
Outline: as §1

[11] = compound: CCCS(=O)(=O)Nc1ccc(F)c(C(=O)c2c[nH]c3ncc(Cl)cc23)c1F
Outline: as §1

[12] = compound: CCCc1cc(C)[nH]c(=O)c1CNC(=O)c1cc(-c2ccnc(N3CCN(C)CC3)c2)cc2c1cnn2C(C)C
Outline: as §1

givinostat = compound: CCN(CC)Cc1ccc2cc(COC(=O)Nc3ccc(C(=O)NO)cc3)ccc2c1 [givinostat]
Outline: as §1

barasertib = compound: CCN(CCCOc1ccc2c(Nc3cc(CC(=O)Nc4cccc(F)c4)[nH]n3)ncnc2c1)CCOP(=O)(O)O [barasertib]
Outline: as §1

Measured: log2 fold change

DCTD isoform 2 (UniProt P32321)
inactive: IRAK-1-4 Inhibitor I 0.018 | ibrutinib -0.017 | [1] -0.004 | ralimetinib -0.047 | [2] -0.035 | [3] 0.092 | [4] -0.01 | pinometostat -0.043 | [5] -0.016 | [6] 0.008 | [7] 0 | [8] 0.007 | [9] 0.011 | [10] 0.003 | Nexturastat A -0.02 | vemurafenib 0.041 | [11] 0.013 | [12] -0.044 | givinostat -0.071 | barasertib -0.021

CSTF2T (UniProt Q9H0L4)
inactive: IRAK-1-4 Inhibitor I 0.003 | ibrutinib -0.025 | [1] 0.007 | ralimetinib -0.005 | [2] -0.018 | [3] 0.062 | [4] -0.025 | pinometostat -0.041 | [5] -0.017 | [6] 0.16 | [7] 0.004 | [8] 0.004 | [9] -0.006 | [10] 0.015 | Nexturastat A -0.099 | vemurafenib 0.021 | [11] -0.042 | [12] -0.065 | givinostat -0.006 | barasertib -0.022

CUSTOS (UniProt Q96C57)
inactive: IRAK-1-4 Inhibitor I 0.042 | ibrutinib 0.052 | [1] 0.017 | ralimetinib 0.002 | [2] 0.015 | [3] 0.075 | [4] -0.031 | pinometostat -0.017 | [5] 0.006 | [6] -0.007 | [7] -0.016 | [8] 0.004 | [9] 0.02 | [10] -0.009 | Nexturastat A 0.042 | vemurafenib -0.014 | [11] 0.021 | [12] 0.01 | givinostat -0.024 | barasertib -0.038

CWC27 (UniProt Q6UX04)
inactive: IRAK-1-4 Inhibitor I -0.045 | ibrutinib -0.111 | [1] -0.133 | ralimetinib 0.048 | [2] -0.08 | [3] 0.018 | [4] -0.007 | pinometostat -0.023 | [6] 0.199 | [7] -0.001 | [8] -0.035 | [9] 0.002 | [10] 0.021 | Nexturastat A -0.029 | vemurafenib 0.128 | [11] 0.112 | [12] 0.009 | givinostat 0.082 | barasertib 0.073

CYB5R4 (UniProt Q7L1T6)
inactive: IRAK-1-4 Inhibitor I 0.033 | ibrutinib -0.037 | [1] -0.011 | ralimetinib -0.037 | [2] 0.019 | [3] -0.023 | [4] -0.025 | pinometostat -0.012 | [5] -0.011 | [6] 0.029 | [7] -0.014 | [8] -0.006 | [9] -0.002 | [10] 0.006 | Nexturastat A -0.047 | vemurafenib 0.04 | [11] -0.008 | [12] -0.074 | givinostat 0.017 | barasertib -0.001

CTSA (UniProt P10619)
inactive: IRAK-1-4 Inhibitor I -0.006 | ibrutinib 0.017 | [1] 0.038 | ralimetinib -0.027 | [2] 0.027 | [3] -0.204 | [4] -0.017 | pinometostat 0.014 | [6] -0.058 | [7] -0.033 | [8] 0.011 | [9] -0.02 | [10] 0.003 | Nexturastat A -0.016 | vemurafenib -0.013 | [11] -0.039 | [12] -0.047 | givinostat 0.117 | barasertib 0

CTU1 (UniProt Q7Z7A3)
inactive: IRAK-1-4 Inhibitor I 0.026 | ibrutinib 0.041 | [1] 0.02 | ralimetinib 0.005 | [2] -0.054 | [3] -0.052 | [4] -0.041 | pinometostat 0.007 | [6] -0.021 | [7] 0.011 | [8] -0.023 | [9] 0.061 | [10] 0.059 | Nexturastat A -0.022 | vemurafenib 0.065 | [11] 0.034 | [12] -0.035 | givinostat 0.043 | barasertib 0

CYCS (UniProt P99999)
inactive: IRAK-1-4 Inhibitor I 0.095 | ibrutinib -0.02 | [1] 0.028 | ralimetinib -0.02 | [2] 0.037 | [3] 0.087 | [4] 0.034 | pinometostat -0.038 | [5] 0.067 | [6] 0.012 | [7] -0.032 | [8] 0.012 | [9] 0.015 | [10] 0.002 | Nexturastat A -0.138 | vemurafenib -0.009 | [11] -0.01 | [12] 0.02 | givinostat -0.04 | barasertib 0.013

CYB5B, A0A499FJ32
inactive: IRAK-1-4 Inhibitor I 0.028 | ibrutinib -0.004 | [1] -0.026 | ralimetinib -0.081 | [2] -0.01 | [3] 0.046 | [4] -0.018 | pinometostat -0.079 | [5] -0.126 | [6] 0.119 | [7] 0.061 | [8] -0.027 | [9] 0.186 | [10] 0.013 | Nexturastat A -0.043 | vemurafenib 0.027 | [11] 0.176 | [12] -0.123 | givinostat 0.037 | barasertib -0.112

CYP51A1 (UniProt Q16850)
active: [3] 0.782
inactive: IRAK-1-4 Inhibitor I -0.129 | ibrutinib 0.039 | [1] -0.028 | ralimetinib 0.064 | [2] 0.245 | [4] 0.07 | pinometostat 0.045 | [6] -0.006 | [7] 0.063 | [8] -0.036 | [9] -0.098 | [10] -0.133 | Nexturastat A 0.024 | vemurafenib 0.029 | [11] -0.015 | [12] 0.07 | givinostat 0.007 | barasertib 0.01

DCAF11 (UniProt Q8TEB1)
inactive: IRAK-1-4 Inhibitor I 0.011 | ibrutinib 0.047 | [1] 0.036 | ralimetinib -0.025 | [2] -0.071 | [3] -0.004 | [4] -0.04 | pinometostat -0.017 | [5] -0.028 | [6] -0.05 | [7] 0.01 | [8] 0.01 | [9] 0.001 | [10] 0.007 | Nexturastat A -0.106 | vemurafenib 0.006 | [11] -0.018 | [12] -0.023 | givinostat 0.041 | barasertib -0.009

CST3 (UniProt P01034)
inactive: IRAK-1-4 Inhibitor I -0.041 | ibrutinib 0.026 | [1] 0.049 | ralimetinib 0.039 | [2] 0.261 | [3] 0.14 | [4] -0.016 | pinometostat -0.011 | [5] 0.002 | [6] -0.135 | [7] 0.164 | [8] 0 | [9] -0.094 | [10] 0.018 | Nexturastat A -0.134 | vemurafenib -0.057 | [11] -0.135 | [12] 0 | givinostat 0 | barasertib -0.046

DAP (UniProt P51397)
inactive: IRAK-1-4 Inhibitor I -0.012 | ibrutinib -0.031 | [1] 0.04 | ralimetinib -0.101 | [2] -0.024 | [3] 0.134 | [4] 0.011 | pinometostat -0.094 | [5] 0.023 | [6] -0.006 | [7] 0.016 | [8] -0.038 | [9] 0.043 | [10] 0.141 | Nexturastat A -0.089 | vemurafenib 0.019 | [11] -0.015 | [12] -0.05 | givinostat 0.023 | barasertib -0.022

DCPS (UniProt Q96C86)
inactive: IRAK-1-4 Inhibitor I 0.048 | ibrutinib 0.014 | [1] -0.02 | ralimetinib -0.044 | [2] 0.014 | [3] 0.093 | [4] 0.008 | pinometostat -0.067 | [5] 0.013 | [6] 0.012 | [7] -0.056 | [8] 0.021 | [9] -0.009 | [10] 0.018 | Nexturastat A 0.039 | vemurafenib 0.008 | [11] 0.003 | [12] -0.03 | givinostat 0.008 | barasertib -0.002

CWF19L1 (UniProt Q69YN2)
inactive: IRAK-1-4 Inhibitor I 0.027 | ibrutinib 0.01 | [1] 0.031 | ralimetinib 0.016 | [2] 0.014 | [3] 0.206 | [4] -0.025 | pinometostat 0.031 | [5] -0.06 | [6] 0.138 | [7] 0.049 | [8] -0.03 | [9] -0.016 | [10] 0.004 | Nexturastat A -0.039 | vemurafenib 0 | [11] 0.034 | [12] 0.012 | givinostat 0.009 | barasertib 0.016

CSTF2 (UniProt P33240)
inactive: IRAK-1-4 Inhibitor I 0.011 | ibrutinib 0.008 | [1] 0.057 | ralimetinib -0.006 | [2] 0.025 | [3] 0.093 | [4] -0.006 | pinometostat -0.008 | [6] 0.169 | [7] -0.081 | [8] 0 | [9] 0.002 | [10] -0.05 | Nexturastat A 0.026 | vemurafenib 0.016 | [11] -0.053 | [12] 0.004 | givinostat -0.014 | barasertib -0.042

Quoted from above (2 entries):
CST3 (UniProt P01034)
inactive: IRAK-1-4 Inhibitor I -0.041 | ibrutinib 0.026 | [1] 0.049 | ralimetinib 0.039 | [2] 0.261 | [3] 0.14 | [4] -0.016 | pinometostat -0.011 | [5] 0.002 | [6] -0.135 | [7] 0.164 | [8] 0 | [9] -0.094 | [10] 0.018 | Nexturastat A -0.134 | vemurafenib -0.057 | [11] -0.135 | [12] 0 | givinostat 0 | barasertib -0.046

DAP (UniProt P51397)
inactive: IRAK-1-4 Inhibitor I -0.012 | ibrutinib -0.031 | [1] 0.04 | ralimetinib -0.101 | [2] -0.024 | [3] 0.134 | [4] 0.011 | pinometostat -0.094 | [5] 0.023 | [6] -0.006 | [7] 0.016 | [8] -0.038 | [9] 0.043 | [10] 0.141 | Nexturastat A -0.089 | vemurafenib 0.019 | [11] -0.015 | [12] -0.05 | givinostat 0.023 | barasertib -0.022

Source: the supplement of paper PMC10849652
